Measured values taken from PubChem BioAssay AID1347076 (National Center for Advancing Translational Sciences (NCATS), 2019).
The whole screen tested about 400,000 compounds, of which about 13,000 (3.2%) were called active. Inconclusive means that the source gave no clear call. Such entries were picked first, then a sample of the others. Calls follow the shape of the dose curve; as a rule, active = well fitted cell-killing curve with a large enough effect; inconclusive = small, poorly fitted or top-dose-only effect, or effect the other way; inactive = flat fitted curve, though single readings scatter. Where the call is inconclusive, the potency comes from a doubtful curve fit.
% is scaled to controls: 0 for no effect and ±100 for the full control effect; potency is read from the fitted curve at half-maximal effect.

Assay: qHTS assay for MDR1-selective chemotherapeutics: Primary screen using the drug-selected MDR subline cells KB-V1; also: nearly all actives have a fitted effect of over 60% in size
Settings: KB-V1 MDR cells viability, CellTiter-Glo, 72 h; activity change, negative = cytotoxicity: at 46.1 µM (top of the series)
How it was run: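 KB-V1 cells (P-gp-expressing MDR subline of KB-3-1) in phenol-red-free DMEM with 10% FBS were exposed to library compounds over a concentration series for 72 h at 37 degrees C. Viability read by CellTiter-Glo luminescence; concentration-effect curves fitted after normalization.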
With `CCn1c(CC(=O)Nc2ccccc2F)nnc1SCC(=O)NC1CCCC1` the Potency was inconclusive: 29.1 µM [rising, single point].
With `O=C1c2ccccc2C(c2nnnn2-c2ccc3c(c2)OCCO3)N1CCc1ccccc1F` (centres undefined) the Potency was inconclusive: 2.91 µM [cytotoxic, partial curve].
For `COc1ccc(CNCc2cccc(Oc3ccccc3)c2)cc1`, the Potency was inconclusive: 11.6 µM [cytotoxic, partial curve].
In the case of `COC1=C(N)C(=O)c2nc(-c3nc(C(=O)O)c(C)c(-c4ccc(OC)c(OC)c4O)c3N)ccc2C1=O`, the Potency is reported as active: 0.206 µM.
With `CCOc1ccc(Br)cc1S(=O)(=O)Nc1cccc(-c2ccc(OC)nn2)c1` the Potency was inconclusive: 29.1 µM [cytotoxic, single point].
For `Cc1ccc(C)c(N2CCN(C(=O)CN3C(=O)COc4ccc(S(=O)(=O)N5CCC(C)CC5)cc43)CC2)c1`, the Potency was inconclusive: 5.17 µM [cytotoxic, full curve].
For `CC1CCN(S(=O)(=O)c2ccc(NC(=O)c3ccco3)cc2)CC1`, the Potency was inconclusive: 3.66 µM [cytotoxic, partial curve].
For `Cc1ccnc(NC(c2ccsc2)c2ccc3ccc(C)nc3c2O)c1` (centres undefined), the Potency was “inactive”.
For `CCCCCCCCN1C(=O)[C@H](CC(=O)NCc2cccc(C(F)(F)F)c2)C[C@@]2(C(=O)OCC)CCC=C12`, the Potency was “inactive”.
For `O=c1[nH]c(=O)n([C@H]2C[C@H](O)[C@@H](CO)O2)cc1Br`, the Potency was “inactive”.
In the case of `CCCCC(c1nnnn1CS(=O)(=O)c1ccc(C)cc1)N1CCN(C)CC1` (centres undefined), the Potency is reported as inconclusive: 0.366 µM [rising, full curve, poor fit].
With `Cc1cc(CN2CCN(CC(=O)Nc3cc(C(F)(F)F)ccc3-n3cncn3)CC2)no1` the Potency was active: 23.1 µM.
In the case of `COc1ccc(NC(=O)CSc2nc(C(C)C)nc3c2c(=O)n(C)c(=O)n3C)c(OC)c1`, the Potency is reported as “inactive”.
In the case of `C=CCN1C(=O)/C(=C/C(=O)OC)S/C1=N\NC(=O)c1ccccc1`, the Potency is reported as “inactive”.
With `CC1CCN(C(=O)COC(=O)c2cc([N+](=O)[O-])ccc2N2CCOCC2)CC1` the Potency was inconclusive: 7.31 µM [cytotoxic, partial curve].
With `CCSc1nnc(NC(=O)[C@H](C)N2C(=O)C3CC=CCC3C2=O)s1` (some centres undefined) the Potency was inconclusive: 10.3 µM [rising, partial curve, poor fit].
With `Cn1c(=O)[nH]c(=O)c2cc(C(=O)c3cc(F)ccc3O)cnc21` the Potency was inconclusive: 16.4 µM [cytotoxic, single point].
For `Cc1ccc(Cl)cc1N1CCN(C(=O)c2ccc3c(c2)N(Cc2ccccc2)CCS3)CC1`, the Potency was inconclusive: 29.1 µM [cytotoxic, single point].
In the case of `COc1cccc(Cn2cnc3c(sc4nc(C)cc(C)c43)c2=O)c1`, the Potency is reported as inconclusive: 20.6 µM [cytotoxic, single point].
In the case of `CCOC(=O)c1cccc(NC(=O)CCn2nnc3ccccc32)c1`, the Potency is reported as active: 8.2 µM.
In the case of `CC(=O)Nc1cc(NC(C)=O)cc(C(=O)OC(C)C(=O)Nc2ccc(S(=O)(=O)N3CCCC3)cc2)c1` (centres undefined), the Potency is reported as inconclusive: 29.1 µM [rising, single point].
In the case of `COc1ccc(-c2cc(C(=O)NCc3ccco3)c3ccccc3n2)c(OC)c1`, the Potency is reported as “inactive”.
For `CCOC(=O)C1=C(C)NC(C)=C(C(=O)OCC)C1C(=O)OCC(=O)NCc1ccco1`, the Potency was inconclusive: 32.6 µM [cytotoxic, single point].
In the case of `CSc1ccccc1COC(=O)Nc1ccccc1C`, the Potency is reported as inconclusive: 25.9 µM [cytotoxic, single point].
In the case of `CC(C(=O)NCC1CCCCC1)N(C)Cc1cccc(Cl)c1` (centres undefined), the Potency is reported as inconclusive: 32.6 µM [cytotoxic, partial curve, poor fit].
With `O=C(CCNS(=O)(=O)c1ccc(F)cc1)N1CCN(c2ncccn2)CC1` the Potency was “inactive”.
For `CN(C)CC(O)c1ccc(C=Cc2ccc(Cl)cc2)cc1` (centres undefined), the Potency was inconclusive: 29.1 µM [cytotoxic, single point].
In the case of `COc1cccc(NC(=O)c2cc(-c3ccncc3)nc3c(C)cc(C)cc23)c1`, the Potency is reported as “inactive”.
In the case of `Cc1ccc(C)c(S(=O)(=O)NCc2ccc(C(=O)N3CCCCCC3)cc2)c1`, the Potency is reported as inconclusive: 5.17 µM [cytotoxic, partial curve].
In the case of `Oc1ccc(/C=N/Nc2ncnc3c2ncn3Cc2ccccc2)cc1O`, the Potency is reported as inconclusive: 13 µM [cytotoxic, partial curve].
For `CCC(=O)N[C@H]1C=C[C@H](CC(=O)OC)O[C@@H]1CO`, the Potency was “inactive”.
For `COc1ccc(NC2=C3CC(C)CC=C3N(c3ccc(OC)cc3)C2=O)cc1` (centres undefined), the Potency was inconclusive: 25.9 µM [cytotoxic, partial curve, poor fit].
With `Cn1nc(C(C)(C)C)cc1NC(=O)C1(C)CCN1C(=O)C1(c2ccccc2)CC1` (centres undefined) the Potency was “inactive”.
For `O=C(CN1CCN(c2ccccc2)CC1)Nc1cccc(C(F)(F)F)c1`, the Potency was “inactive”.
In the case of `O=C(CN1C(=O)NC(Cc2c[nH]c3ccccc23)C1=O)Nc1ccc(F)cc1F` (centres undefined), the Potency is reported as inconclusive: 16.4 µM [rising, single point].
For `COc1ccc(OCCCn2cc(/C=C3/C(=N)N4C=C(C)SC4=NC3=O)c3ccccc32)cc1`, the Potency was active: 10.3 µM.
For `Cc1ccc(-n2c(O)c(C=NCc3ccccn3)c3ccccc3c2=O)cc1C`, the Potency was “inactive”.
In the case of `O=C(NCC(c1cccs1)N1CCOCC1)c1cn(-c2ccccc2)nc1-c1ccccc1` (centres undefined), the Potency is reported as active: 23.1 µM.
In the case of `CCN(CC)CCCNC1CCS(=O)(=O)C1` (centres undefined), the Potency is reported as inconclusive: 29.1 µM [rising, single point].
In the case of `COc1cc(OC)c(C(=O)OCC(=O)N2CC(=O)Nc3ccccc32)cc1OC`, the Potency is reported as inconclusive: 25.9 µM [rising, single point].
For `Cc1cc(C(=O)N2CCCC(C(=O)c3ccc4ccccc4c3)C2)nn1C` (centres undefined), the Potency was inconclusive: 23.1 µM [cytotoxic, single point].
For `CCOc1ccccc1Nc1nc(-c2sc(C)nc2C)cs1`, the Potency was inconclusive: 7.31 µM [cytotoxic, partial curve, poor fit].
With `CCN(CC)c1ccc(NC(=O)c2ccccn2)cc1S(=O)(=O)Nc1ccccc1OC` the Potency was inconclusive: 8.2 µM [cytotoxic, partial curve].
For `CCCC(=O)N1CCC1(C)C(=O)Nc1cc(-c2ccccc2)nn1C` (centres undefined), the Potency was “inactive”.
With `Cc1ccc2c(=O)c(C(=O)c3ccccc3)cn(CC(=O)Nc3ccc(C)c(Cl)c3)c2n1` the Potency was “inactive”.
With `Cn1c(C(=O)OC(C(=O)NCc2ccco2)c2ccncc2)cc2sccc21` (centres undefined) the Potency was active: 3.66 µM.
For `CC(=O)Nc1ccccc1NC(=O)C/C(C)=N/NC(=O)c1cccnc1`, the Potency was inconclusive: 29.1 µM [rising, single point].
For `C[C@@H]1CN([C@@H](C)CO)C(=O)CCCn2nncc2CO[C@@H]1CN(C)C(=O)c1ccc(N2CCN(C)CC2)cc1`, the Potency was inconclusive: 29.1 µM [cytotoxic, single point].
With `CC1CCN(C(=S)c2ccc(N(C)C)cc2)CC1` the Potency was inconclusive: 20.6 µM [cytotoxic, single point].
For `Cc1cc(C)c2nc(C(F)(F)F)c(C#N)c(N)c2c1`, the Potency was inconclusive: 29.1 µM [cytotoxic, single point].
In the case of `c1ccc(Cc2noc(CN3CCCN(C4Cc5ccccc5C4)CC3)n2)cc1`, the Potency is reported as “inactive”.
With `CCOc1nc(-c2ccccc2Cl)ccc1C#N` the Potency was inconclusive: 23.1 µM [cytotoxic, single point].
With `CSCCC(NC(=O)c1ccccc1Cl)C(=O)NCC(c1ccc(F)cc1)N1CCOCC1` (centres undefined) the Potency was “inactive”.
For `O=C(Nc1ccc(Cl)cc1)N1CCC(CN2CCCCCC2)CC1`, the Potency was “inactive”.
With `O=C(NCCCn1ccnc1)c1ccc(COc2ccccc2)o1` the Potency was “inactive”.
In the case of `COCCN1C(=O)c2ccccc2C1c1nnnn1Cc1ccccc1` (centres undefined), the Potency is reported as inconclusive: 20.6 µM [cytotoxic, partial curve, poor fit].
In the case of `COc1cccc(OCCNC(=O)CSc2ccc(C(F)(F)F)cc2[N+](=O)[O-])c1`, the Potency is reported as inconclusive: 20.6 µM [cytotoxic, single point].
For `CCCCN(C)CCCNC(=O)/C=C1\Sc2ccccc2NC1=O`, the Potency was inconclusive: 0.0092 µM [rising, full curve].
With `CCOC(=O)c1ccc(NC(=O)c2ncn3c2C(=O)NC[C@H]3C)cc1` the activity change, negative = cytotoxicity was inconclusive: 45.2%.
With `O=C(CC(c1ccco1)C1CCCCC1=O)c1ccccc1` (centres undefined) the Potency was inconclusive: 23.1 µM [cytotoxic, single point].
For `O=C(NCC1CCCO1)c1nc2c(nnn2Cc2ccc(F)cc2)c(=O)[nH]1` (centres undefined), the Potency was “inactive”.
With `c1nc(N2CCCCCC2)c2[nH]cnc2n1` the Potency was active: 23.1 µM.
For `Cc1cccc(Cn2c(SCc3ccc(C(=O)NCc4ccccc4)cc3)nc3cccnc32)c1`, the Potency was “inactive”.
In the case of `O=C(Nc1ccccc1N1CCOCC1)c1ccc([N+](=O)[O-])o1`, the Potency is reported as inconclusive: 29.1 µM [cytotoxic, single point].
For `CCOC(=O)N1CCN(C(=O)CN(Cc2ccccc2)S(=O)(=O)c2ccc(OC)c(C)c2)CC1`, the Potency was inconclusive: 9.2 µM [cytotoxic, partial curve, poor fit].
In the case of `O=C(NCC1CCCCC1)c1ccc(Cl)nc1`, the Potency is reported as inconclusive: 18.4 µM [rising, single point].
In the case of `Cc1oc2ccc(NS(=O)(=O)c3cccc4cccnc34)cc2c1C(=O)OC(C)C`, the Potency is reported as inconclusive: 18.4 µM [cytotoxic, single point].
For `CCOC(=O)[C@]12CCCC=C1N(Cc1ccc(Cl)cc1Cl)C(=O)[C@H](CC(=O)N1CCCC1)C2`, the Potency was inconclusive: 3.66 µM [cytotoxic, partial curve].
In the case of `Cc1ccccc1-n1ncc2c1CC(C)(C)CC2NC(=O)CCCN1CCCC1=O` (centres undefined), the Potency is reported as inconclusive: 29.1 µM [cytotoxic, partial curve, poor fit].
